Data on two substances can be found in publication PMC12594171, “DKK3-LRP1 complex and a chemical inhibitor regulate Aβ clearance in models of Alzheimer’s disease” (Science Advances, 2025).

Protein sequences, listed by entry. Tags and fused reporters are not part of them. Residues count along the entry.
UniProt O75197, residues 32-1615: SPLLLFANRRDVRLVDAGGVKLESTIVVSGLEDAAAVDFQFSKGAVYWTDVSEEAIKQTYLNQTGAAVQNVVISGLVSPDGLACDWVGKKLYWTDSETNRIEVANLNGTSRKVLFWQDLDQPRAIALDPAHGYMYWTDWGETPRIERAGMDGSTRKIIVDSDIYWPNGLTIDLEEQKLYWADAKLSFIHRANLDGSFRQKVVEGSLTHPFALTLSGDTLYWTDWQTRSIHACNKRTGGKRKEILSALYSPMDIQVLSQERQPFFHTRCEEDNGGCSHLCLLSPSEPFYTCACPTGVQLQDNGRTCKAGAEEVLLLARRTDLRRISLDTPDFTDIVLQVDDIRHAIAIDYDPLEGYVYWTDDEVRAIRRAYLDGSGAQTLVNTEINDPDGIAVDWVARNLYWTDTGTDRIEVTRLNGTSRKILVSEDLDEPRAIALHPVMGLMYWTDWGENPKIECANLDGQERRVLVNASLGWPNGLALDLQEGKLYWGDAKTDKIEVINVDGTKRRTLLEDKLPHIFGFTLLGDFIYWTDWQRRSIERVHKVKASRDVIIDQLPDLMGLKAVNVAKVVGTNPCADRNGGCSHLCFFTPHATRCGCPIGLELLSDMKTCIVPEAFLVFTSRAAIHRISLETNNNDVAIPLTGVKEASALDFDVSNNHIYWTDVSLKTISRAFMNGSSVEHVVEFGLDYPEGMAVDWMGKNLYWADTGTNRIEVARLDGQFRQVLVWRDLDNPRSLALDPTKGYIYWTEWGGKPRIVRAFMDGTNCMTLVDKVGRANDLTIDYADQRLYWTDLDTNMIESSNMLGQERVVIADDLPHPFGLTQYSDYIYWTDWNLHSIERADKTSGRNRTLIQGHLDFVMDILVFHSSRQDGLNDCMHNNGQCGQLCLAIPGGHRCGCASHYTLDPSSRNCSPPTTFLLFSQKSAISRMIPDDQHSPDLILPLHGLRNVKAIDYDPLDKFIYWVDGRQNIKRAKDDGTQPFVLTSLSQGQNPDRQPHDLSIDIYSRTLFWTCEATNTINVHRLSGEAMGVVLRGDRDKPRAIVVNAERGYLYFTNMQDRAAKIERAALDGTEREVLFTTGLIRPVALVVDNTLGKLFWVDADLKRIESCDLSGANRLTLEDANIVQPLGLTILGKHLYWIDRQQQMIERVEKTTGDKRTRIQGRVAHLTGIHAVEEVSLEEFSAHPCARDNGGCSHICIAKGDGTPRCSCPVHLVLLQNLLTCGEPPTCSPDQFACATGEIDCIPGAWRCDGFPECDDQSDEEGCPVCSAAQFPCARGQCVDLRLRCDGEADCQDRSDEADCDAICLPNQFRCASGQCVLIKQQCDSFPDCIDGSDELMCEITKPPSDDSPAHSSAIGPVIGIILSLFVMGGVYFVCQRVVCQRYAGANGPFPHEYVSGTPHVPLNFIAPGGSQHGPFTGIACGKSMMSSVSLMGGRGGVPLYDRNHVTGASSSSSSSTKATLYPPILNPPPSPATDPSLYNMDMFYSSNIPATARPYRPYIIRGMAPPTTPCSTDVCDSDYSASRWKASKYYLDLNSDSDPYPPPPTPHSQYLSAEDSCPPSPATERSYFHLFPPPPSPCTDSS

These are yes or no findings as the source states them, for the method shown. Binding seen in cells or lysates may run through a third protein. Here binding means that the protein was enriched with, or labelled near, the bait; the list need not be complete. Where a sequence is shown, tags or fusion partners need not be part of it.

The target of the assay is T1, Flag-tagged DKK4 (UniProt Q9UBT3).
T1 sequence: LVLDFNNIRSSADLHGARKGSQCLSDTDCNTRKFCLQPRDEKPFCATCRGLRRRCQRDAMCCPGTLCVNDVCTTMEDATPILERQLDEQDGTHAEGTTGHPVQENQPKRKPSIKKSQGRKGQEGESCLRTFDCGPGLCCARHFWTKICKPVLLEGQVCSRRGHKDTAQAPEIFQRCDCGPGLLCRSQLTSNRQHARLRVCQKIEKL
Briefly: affinity purification with mass spectrometry; total extract of HEK293 DKK4+ cells fractionated on Superose 6; DKK4 peak fractions precipitated with anti-Flag M2 gel or anti-DKK4 antibody; 20 mM Hepes pH 7.9, 200 mM NaCl, 4°C overnight.

For the substance “LRP5, endogenous in HEK293 (from UniProt O75197 32-1615) (receptor)”, the binding result is recorded as “binds”.

“low-density lipoprotein receptor-related protein 1 (LRP1), endogenous in HEK293 (human (endogenous in HEK293))”: the binding entry is listed as “binds”.
